Test results published in PubChem BioAssay AID2685 (National Center for Advancing Translational Sciences (NCATS), 2010).
“And” between values parts separate entries of the source, which are not always exact repeats. Identical values can stand only once. The list shows a part of the results. The main result of the screen is listed elsewhere. These columns were measured beside it and carry no call. The list favours compounds with an active or inconclusive main result. The note in brackets gives the kind of curve behind each potency; many fits are weak.

Assay: qHTS Assay for Lipid Storage Modulators in Drosophila S3 Cells;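 as to cell number change: cells counted by Cell Tracker Red CMTPX staining in the red channel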
Details: BODIPY lipid droplet fluorescence, 18-24 h; for cell number change: measured here: cell count max response, cells fed with added oleic acid
Outline: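 Drosophila S3 cells loaded with oleic acid (400 uM, as added) and compounds at several concentrations; lipid droplets imaged by 488-nm laser-scanning cytometry, 500–530 nm intensity and object ratio to cell channel. Percent activity normalized to 20 uM Triacsin C.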

[1] = measured here: lipid fluorescence (Fed channel) AC50, cells fed with added oleic acid
[2] = measured here: cell number channel AC50, cells fed with added oleic acid

Row | Compound | cell number change | AC50 [1] | AC50 [2]
1 | Cc1ccc(C(=O)N/C(=C\c2ccco2)C(=O)NCCc2c[nH]c3ccccc23)cc1 | 1.37% | 0.00461 µM [rising, full curve, poor fit] | 
2 | COc1cc(/C=C/C(=O)OCC(=O)NC2CCS(=O)(=O)C2)ccc1OC(F)F (configuration not stated) | -23.9% | 0.291 µM [falling, full curve, poor fit] | 
3 | CSc1nc(NCc2ccco2)c2ccccc2n1 |  | 6.51 µM [rising, single point] | 0.731 µM [rising, single point]
4 | Cc1cc(NC(C)C)n2c(nc3ccccc32)c1C#N |  | 18.4 µM [falling, partial curve] | 
5 | COc1ccc(S(=O)(=O)N2CCOC2CNC(=O)C(=O)NCCc2ccc(OC)c(OC)c2)cc1 (configuration not stated) | -1.49% | 29.1 µM [falling, single point] | 
6 | COc1ccccc1C/C(N)=N/OC(=O)c1ccc(C)c([N+](=O)[O-])c1 | -4.89% | 0.731 µM [falling, partial curve, poor fit] | 
7 | Cc1ccc2cc(C#N)c(SCC(=O)NNC(=O)Cc3ccccc3)nc2c1 | -0.244% | 23.1 µM [falling, partial curve] | 
8 | CCCCC(=O)Nc1ccc2c(c1)nc1n2CCOC1 | 36.7% |  | 10.3 µM [rising, partial curve, poor fit]
9 | COC(=O)c1[nH]c2cccc(OC)c2c1NC(=O)CN1CCN(c2cccc(OC)c2)C(C)C1 (configuration not stated) |  | 3.26 µM [rising, partial curve] | 
10 | COC(=O)c1ccc(C)c(NC(=O)c2ccc(CN3CCc4ccccc4C3)cc2)c1 | -16.5% | 29.1 µM [falling, single point] | 
11 | COc1ccccc1N1CCN(CC(O)COc2cccc3ccccc23)CC1 (configuration not stated) | -25% and 11.3% and 16.8% | 29.1 µM [falling, single point] and 25.9 µM [rising, single point] and 10.3 µM [rising, partial curve] | 
12 | CC1CCCN(C(=O)CNC(=O)Cn2ccc3ccccc3c2=O)C1 (configuration not stated) | -2.45% | 25.9 µM [rising, single point] | 
13 | Brc1ccc(C2=CC(c3ccco3)n3nnnc3N2)cc1 (configuration not stated) | 25% | 18.4 µM [rising, single point] | 
14 | COc1cc(OC)cc(C(=O)OCC(=O)c2cc(C)n(CC3CCCO3)c2C)c1 (configuration not stated) | 22.8% |  | 
15 | CCCOc1ccc(Cn2ccnc2)cc1[N+](=O)[O-] | -5.35% | 29.1 µM [rising, single point] | 
16 | COc1ccc(Nc2cc(C)nc(-n3nc(C)cc3C)n2)cc1 | -4.76% |  | 
17 | CCOC(=O)c1c(C)[nH]c(C(=O)OCc2c(C)noc2C)c1C | -16.4% |  | 
18 | C=CCNS(=O)(=O)c1sccc1/C=N/O | 5.85% |  | 
19 | C=CCNC(=S)Nc1ccc2nc(C)oc2c1 | 101% | 29.1 µM [rising, single point] | 20.6 µM [rising, single point]
20 | OC(COc1ccc(F)cc1Cl)CN1CCC(Cc2ccccc2)CC1 (configuration not stated) | -65.9% | 23.1 µM [falling, single point] | 23.1 µM [falling, single point]
21 | CC(C)COc1ccc(-c2nnn(CC(=O)N3CCCC3)n2)cc1 | 33% | 6.51 µM [rising, single point] | 

Row | Compound | cell number change | AC50 [1] | AC50 [2]
22 | Cc1ccccc1CN1C(=O)c2ccccc2Sc2ccc(C(=O)NCCCN3CCOCC3)cc21 | 3.8% | 29.1 µM [rising, single point] | 
23 | O=C(C1CC1)N1CCN=C1SCc1ccccc1Cl | 9.39% |  | 
24 | Cc1scc(C(=O)N/N=C/c2ccc(OC(C)C)cc2)c1C | 27.9% | 8.2 µM [rising, partial curve] | 
25 | COc1ccc(-n2c(-c3ccc(Br)cc3)c[n+]3c2CCCCC3)cc1 | -52.3% | 29.1 µM [falling, single point] | 29.1 µM [falling, single point]
26 | COc1ccc(C(=O)N=c2c(C#N)cc3c(=O)n4cccc(C)c4nc3n2Cc2ccco2)cc1 |  | 0.291 µM [rising, full curve] | 0.291 µM [rising, full curve]
27 | COc1cccc(-n2nc3c(=O)n(Cc4ccccc4Cl)nc(C)c3c2C)c1 | -0.419% | 6.51 µM [falling, single point] | 
28 | COc1ccc(N2CCN(c3nc(NCCO)nc(N4CCOCC4)n3)CC2)cc1 | 32% | 1.16 µM [rising, single point] | 2.31 µM [rising, partial curve]
29 | CC12CCC(C(=O)NCCc3ccccc3)(OC1=O)C2(C)C (configuration not stated) | -68.6% |  | 1.3 µM [falling, full curve]
30 | CS(=O)(=O)c1cccc(-c2nnc(NC(=O)c3ccc4ncsc4c3)o2)c1 | 16.2% |  | 
31 | O=C(Nc1ccc2c(c1)OCO2)C1CCN(S(=O)(=O)Cc2ccccc2)CC1 | -6.11% | 2.31 µM [rising, partial curve] | 
32 | CC1(C)CC(=O)C2=C(C1)Nc1ccccc1NC2c1cccnc1 (configuration not stated) | -81% |  | 29.1 µM [falling, single point]
33 | Cc1cc(NCc2ccccn2)n2c(nc3ccccc32)c1C#N | -19.2% |  | 
34 | O=Nc1c(O)[nH]c2ccc(Cl)cc12 | 32.5% | 0.00461 µM [rising, full curve, poor fit] | 0.92 µM [falling, full curve]
35 | COc1cc(N)c(Cl)cc1C(=O)OCC(=O)N1CCCCCC1 | 29.2% | 1.16 µM [rising, partial curve] | 
36 | CC1(C)O[C@@H]2[C@H](O1)[C@@H](CO)O[C@H]2n1ccc(=O)[nH]c1=O | -3.25% |  | 
37 | O=C(CS(=O)(=O)c1ccccc1)Nc1ccc(S(=O)(=O)Nc2ncccn2)cc1 | -41.5% |  | 16.4 µM [falling, partial curve]
38 | Cc1n[nH]c(=O)c2c1nnn2Cc1ccc(F)cc1 | 17.7% |  | 
39 | CC(C)C[C@H](NC(=O)C1CC(=O)N(c2ccc3c(c2)OCCO3)C1)C(=O)N1CCCCC1 (some centres not stated) | -15.3% |  | 
40 | COc1ccc(NC(=S)N2CCN(CCN3C(=O)c4cccc5cccc(c45)C3=O)CC2)cc1 | 5.15% |  | 
41 | CC1CCCN(C(=O)NC2CC(=O)N(c3ccc4c(c3)OCCO4)C2)C1 (configuration not stated) | 2.99% |  | 
42 | COc1ccc(C(C)=O)c(OC(=O)c2ccc(OC)c(OC)c2)c1 |  | 6.51 µM [falling, partial curve, poor fit] | 

Row | Compound | cell number change | AC50 [1] | AC50 [2]
43 | CN(C)/C=N/C(=S)Nc1ccc(F)cc1 | 24% |  | 2.31 µM [rising, full curve, poor fit]
44 | CC(C)Oc1cccc(C(=O)C2CCCN(Cc3cnc(N4CCCC4)s3)C2)c1 (configuration not stated) | -24.6% | 16.4 µM [falling, single point] | 
45 | O=C(Nc1cccc(-n2cnnn2)c1)c1ccncc1 | -2.02% | 1.84 µM [rising, partial curve, poor fit] | 
46 | CC1CC(=O)c2cnc(Nc3cccc(C(F)(F)F)c3)nc2C1 (configuration not stated) | 6.16% | 4.11 µM [rising, single point] | 
47 | Cc1ccc(CN2CC(C(=O)NCCCSc3ccccc3)CC2=O)cc1 (configuration not stated) | 4.99% |  | 
48 | O=C(CCn1ccnc1)Nc1cc(Cl)ccc1O | 10.5% |  | 
49 | CC(C)(C)C(=O)Nc1nnc(CSCc2ccccc2F)s1 |  | 3.26 µM [rising, partial curve, poor fit] | 2.59 µM [rising, single point]
50 | COc1ccc(CNC(=O)CN(C(=O)c2csnn2)c2cccc(F)c2)cc1 | 14.1% | 29.1 µM [rising, single point] | 
51 | O=C(CSc1nc2ccccc2c(=O)n1-c1ccc(F)cc1F)c1c[nH]c2ccccc12 | -6.97% | 3.26 µM [rising, single point] | 
52 | Cc1nn(-c2ccc(N3CCCCC3)nn2)c(C)c1CCC(=O)Nc1cccc(F)c1 | 12.2% |  | 0.0651 µM [rising, full curve, poor fit]
53 | Cc1cc(C)nc(NS(=O)(=O)c2ccc(N3C(=O)C4CC=C(Cl)CC4C3=O)cc2)n1 (configuration not stated) | -20.4% |  | 
54 | CCCn1nnnc1NC(=O)c1ccc2ccccc2c1 | 10.7% | 0.92 µM [rising, full curve] | 
55 | CCC(=O)N(C1=C(NC(C)C)C(=O)c2ccccc2C1=O)C(C)C | -45.4% | 14.6 µM [falling, partial curve] | 16.4 µM [falling, single point]
56 | O=c1[nH]c2cnccc2n1-c1ccccc1 | 40% |  | 20.6 µM [rising, single point]
57 | Cc1ccc(/C=c2\s/c(=C(/C#N)C(=O)N3CCCC3)n(Cc3ccco3)c2=O)s1 | 148% | 29.1 µM [rising, single point] | 9.2 µM [rising, partial curve]
58 | CNC(=O)NC(=O)CSc1ccc(NC(C)=O)cc1 | 12.8% | 0.146 µM [rising, full curve, poor fit] | 
59 | CC(O)CNc1nc2ccccc2n1CC(=O)NCC(F)(F)F (configuration not stated) | 5.49% | 14.6 µM [rising, single point] | 
60 | O=C(NC1CCCc2ccccc21)c1ccc([N+](=O)[O-])cc1 (configuration not stated) | 14% | 3.66 µM [rising, partial curve] | 
61 | COCCn1c(N)c(N(Cc2ccccc2)C(=O)C2CCCCC2)c(=O)[nH]c1=O | 42.4% | 29.1 µM [rising, single point] | 29.1 µM [rising, single point]
62 | COc1ccc(C)cc1NC(=O)CCS(=O)(=O)c1cccc2nonc12 | 3.79% | 0.58 µM [rising, single point] | 
63 | O=C(CN1CCN(S(=O)(=O)c2cccs2)CC1)NCC1CCCCC1 | 23.8% | 0.00517 µM [rising, full curve, poor fit] | 0.00517 µM [rising, full curve, poor fit]
